Results are given in words; binding and its absence hold for the method and conditions named. In cells and extracts the contact can be indirect. A yes stands for co-enrichment or nearness to the bait. Other partners may have been found.

Chains of the proteins cited; added tags and fusions are not shown.
UniProt Q9UKV8: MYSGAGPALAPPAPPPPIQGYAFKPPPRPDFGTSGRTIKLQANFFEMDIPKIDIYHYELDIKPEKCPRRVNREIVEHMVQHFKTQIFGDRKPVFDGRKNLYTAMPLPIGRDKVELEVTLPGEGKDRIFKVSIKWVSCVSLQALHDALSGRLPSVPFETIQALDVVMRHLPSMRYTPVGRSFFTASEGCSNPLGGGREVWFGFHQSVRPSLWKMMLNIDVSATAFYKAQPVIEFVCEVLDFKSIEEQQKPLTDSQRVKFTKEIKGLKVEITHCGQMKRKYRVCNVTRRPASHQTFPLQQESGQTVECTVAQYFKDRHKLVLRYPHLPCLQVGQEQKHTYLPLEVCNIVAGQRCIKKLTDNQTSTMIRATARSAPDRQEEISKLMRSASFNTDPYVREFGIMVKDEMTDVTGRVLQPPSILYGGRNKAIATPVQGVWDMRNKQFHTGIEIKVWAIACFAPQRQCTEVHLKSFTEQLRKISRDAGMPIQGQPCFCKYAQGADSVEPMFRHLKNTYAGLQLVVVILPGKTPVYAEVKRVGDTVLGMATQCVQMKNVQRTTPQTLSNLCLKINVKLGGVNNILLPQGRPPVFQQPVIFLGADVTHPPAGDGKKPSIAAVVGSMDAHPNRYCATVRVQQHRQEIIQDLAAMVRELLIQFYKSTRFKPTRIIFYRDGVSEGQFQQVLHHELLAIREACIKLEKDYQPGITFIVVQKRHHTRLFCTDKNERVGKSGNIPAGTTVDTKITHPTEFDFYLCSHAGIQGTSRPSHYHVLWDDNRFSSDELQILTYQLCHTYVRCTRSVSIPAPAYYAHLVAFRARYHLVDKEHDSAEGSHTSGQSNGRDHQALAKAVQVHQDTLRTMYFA

Assay [1] deals with T1, γ1-COP-ultraID (UniProt Q9QZE5).
T1 sequence: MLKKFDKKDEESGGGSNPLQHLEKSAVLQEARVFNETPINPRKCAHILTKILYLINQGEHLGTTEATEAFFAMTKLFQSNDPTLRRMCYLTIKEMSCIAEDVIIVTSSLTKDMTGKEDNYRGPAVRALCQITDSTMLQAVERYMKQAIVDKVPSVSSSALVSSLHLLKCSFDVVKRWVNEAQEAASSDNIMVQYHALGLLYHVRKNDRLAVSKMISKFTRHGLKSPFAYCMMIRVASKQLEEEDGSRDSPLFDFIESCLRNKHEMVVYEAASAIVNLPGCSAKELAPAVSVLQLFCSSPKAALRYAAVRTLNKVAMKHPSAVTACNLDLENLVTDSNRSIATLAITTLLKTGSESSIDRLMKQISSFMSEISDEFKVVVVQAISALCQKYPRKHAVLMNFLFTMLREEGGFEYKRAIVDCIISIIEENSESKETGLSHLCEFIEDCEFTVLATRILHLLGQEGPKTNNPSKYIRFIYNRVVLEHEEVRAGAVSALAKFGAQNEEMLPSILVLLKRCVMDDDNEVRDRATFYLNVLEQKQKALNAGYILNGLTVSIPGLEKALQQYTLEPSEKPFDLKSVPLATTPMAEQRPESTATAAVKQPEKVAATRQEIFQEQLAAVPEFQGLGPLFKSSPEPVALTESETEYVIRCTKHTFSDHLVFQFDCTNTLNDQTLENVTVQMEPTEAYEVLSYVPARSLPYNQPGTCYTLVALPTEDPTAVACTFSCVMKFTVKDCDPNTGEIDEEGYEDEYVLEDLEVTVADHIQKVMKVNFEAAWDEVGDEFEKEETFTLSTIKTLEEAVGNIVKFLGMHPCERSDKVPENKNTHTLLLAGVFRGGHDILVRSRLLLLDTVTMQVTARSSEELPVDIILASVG
Description: proximity labelling; γ1-COP-ultraID or γ2-COP-ultraID rescue lines of P19 cells, 50 uM biotin for 4 h, mock or brefeldin A (5 ug/mL, 1 h before and during labeling); streptavidin pulldown, LC-MS/MS; enrichment against ultraID-Ago2 (mock) and of mock against BFA; three biological replicates.

For assay [2], the target named is BioID-Ago2 (UniProt Q9UKV8). Description: proximity labelling; BioID-Ago2 in doxycycline-induced HeLa 11ht line, 50 uM biotin overnight (added with doxycycline, 24 h); streptavidin pulldown, on-bead trypsin digestion, LC-MS/MS; enrichment (LFQ, proDA) against BioID-Rab11; four biological replicates.

B1: golgin-84 (protein, UniProt Q9QYE6 1-729)
chain: MSWFADLAGRAEDLLNRVDQGAATALRKENTSNIFYSKNTDYPELQQQNTDSNYQTGQKANYISSAADNIRHQKATILAGTANVKVGSRTVGDATHPTEHASAPRPSSQFVRRKKSEPDDELLFDFLNSSQKEPTGRVEVKKEKGRAPVSPSSPSGVSSVNTSVTTTKAMGGNAGSQSPGVNSSDSVPEVHKEPSEESTAPSATSEEHSSTPSDGSSRSQELSNLRLENQLLRNEVQSLNQEMASLLQRSKETQEELNKARVRVEKWNVDNSKSDRITRELRAQVDDLTEAVAAKDSQLAVLKVRLQEADQVLSSRTEALEALRSEKSRIMQDHKEGSSLQNQALQTLQERLHEADATLKREQESYKQMQSEFAARLNKMEVDRQNLAEAVTLAERKYSEEKKKVDELQQQVKLHRASLESAKQELVDYKQKATRILQSKEKLINSLKEGSSFEGLESSTASSMELEELRHEKEMQKEEIQKLMGQMHQLRSELQDMEAQQVSEAESAREQLQDLQDQIAKQRTSKQELETELERMKQEFRYMEEDLHRTKNTLQSRIKDREEEIQKLRNQLTNKTLSNSSQSELESRLHQLTETLIQKQTMLESLSTEKNSLVFQLERLEQQVHSASSGPNSGSAINMSGVDSGEGTRLRNVPVLFNDTETNLAGMYGKVRKAASSIDQFSIRLGIFLRRYPIARVFVIIYMALLHLWVMIVLLTYSPEMHHDQPYGK
In the case of B1, the binding entry in assay [1] was “binds”.

B2: DCP1B (protein, UniProt Q8IZD4 1-617)
chain: MAAVAAGGLVGKGRDISLAALQRHDPYINRIVDVASQVALYTFGHRANEWEKTDVEGTLFVYTRSASPKHGFTIMNRLSMENRTEPITKDLDFQLQDPFLLYRNARLSIYGIWFYDKEECQRIAELMKNLTQYEQLKAHQGTGAGISPVILNSGEGKEVDILRMLIKAKDEYTKCKTCSEPKKITSSSAIYDNPNLIKPIPVKPSENQQQRIPQPNQTLDPEPQHLSLTALFGKQDKATCQETVEPPQTLHQQQQQQQQQQEKLPIRQGVVRSLSYEEPRRHSPPIEKQLCPAIQKLMVRSADLHPLSELPENRPCENGSTHSAGEFFTGPVQPGSPHNIGTSRGVQNASRTQNLFEKLQSTPGAANKCDPSTPAPASSAALNRSRAPTSVTPVAPGKGLAQPPQAYFNGSLPPQTVGHQAHGREQSTLPRQTLPISGSQTGSSGVISPQELLKKLQIVQQEQQLHASNRPALAAKFPVLAQSSGTGKPLESWINKTPNTEQQTPLFQVISPQRIPATAAPSLLMSPMVFAQPTSVPPKERESGLLPVGGQEPPAAATSLLLPIQSPEPSVITSSPLTKLQLQEALLYLIQNDDNFLNIIYEAYLFSMTQAAMKKTM
Turning to B2, the binding result in assay [2] is recorded as “binds”.

B3: ERGIC-53 (protein, UniProt Q9D0F3 31-517)
chain: DGTGGDAAAPGAAGTQAELPHRRFEYKYSFKGPHLVQSDGTVPFWAHAGNAIPSADQIRIAPSLKSQRGSVWTKAKAAFENWEVEVTFRVTGRGRIGADGLAIWYTENQGLDGPVFGSADTWNGVGIFFDSFDNDGKKNNPAIVVIGNNGQINYDHQNDGATQALASCQRDFRNKPYPVRAKITYYQKTLTVMINNGFTPDKNDYEFCAKVENMVIPTQGHFGISAATGGLADDHDVLSFLTFQLTEPGKEPPTAEKDISEKEKEKYQEEFEHFQQELDKKKEEFQKGHPDLQGQPADDIFESIGDRELRQVFEGQNRIHLEIKQLNRQLDMILDEQRRYVSSLTEEISRRGAGTPGQPGQVSQQELDTVVKSQQEILRQVNEVKNSMSETVRLVSGIQHPGSAGVYETTQHFMDIKEHLHVVKRDIDSLAQRSMPSNEKPKCPDLPPFPSCLSTIHFVIFVVVQTVLFVGYIMYRTQQEAAAKKFF
Consider B3, for which, in assay [1], the binding entry is recorded as “binds”.
